Laboratory results reported in the supplement of paper PMC8866396.
± gives the standard deviation of the averaged measurements. The list shows a part of the results. This data set is noisy: repeats of one test often differ as much as different tests do.

The compounds below were run on IL-6-GFP PC-9 (assay: IL-6-GFP fluorescence relative to DMSO control (fraction of control); higher = more IL-6-GFP expression). Conditions: compound concentration: 10 uM; treatment time: 48 h.
Procedure: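 IL-6-GFP-overexpressing PC-9 and PC-9GR EGFR-mutant lung cancer cells (3000 cells/well, 96-well) were treated for 48 h with each compound of the Selleck L2000 library at 10 uM. IL-6-GFP fluorescence was read on a high-content screening system, and viability by CCK-8 absorbance on a parallel plate set. Each value was normalised as compound well / DMSO control well; two independent replicates.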

Structure (SMILES)	IL-6-GFP fluorescence
CN(C)CCN1C(=O)c2cccc3cc(N)cc(c23)C1=O [Amonafide]	1.23 ± 0.28
Cc1nc(-c2ccc(OCC(C)C)c(C#N)c2)sc1C(=O)O [Febuxostat]	0.796 ± 0.15
Cc1nc2ccc(CN(C)c3ccc(C(=O)NC(CCC(=O)O)C(=O)O)s3)cc2c(=O)[nH]1 (centres undefined) [Raltitrexed]	0.99 ± 0.047
CC[N+](CC)(CC)CCOc1cccc(OCC[N+](CC)(CC)CC)c1OCC[N+](CC)(CC)CC.[I-].[I-].[I-] [Gallamine Triethiodide]	0.945 ± 0.18
Cc1cnc(NC(=O)C2=C(O)c3ccccc3S(=O)(=O)N2C)s1 [Meloxicam]	0.782 ± 0.098
CC1(C)CCC(C)(C)c2cc(NC(=O)c3ccc(C(=O)O)cc3)ccc21 [Tamibarotene]	0.8095 ± 0.0046
CO/N=C(\C(=O)NC1C(=O)N2C(C(=O)OCOC(=O)C(C)(C)C)=C(C)CSC12)c1csc(N)n1.Cl (centres undefined) [Cefetamet pivoxil hydrochloride]	0.935 ± 0.12
CC(CCC(=O)[O-])C1CCC2C3C(O)CC4CC(O)CCC4(C)C3CC(O)C12C.[Na+] (centres undefined) [Sodium cholate]	0.812 ± 0.067
CN(C)C(=O)COC(=O)Cc1ccc(OC(=O)c2ccc(NC(=N)N)cc2)cc1.CS(=O)(=O)O [Camostat Mesilate]	0.836 ± 0.23
COc1c2ccoc2cc2oc(=O)ccc12 [Bergapten]	0.807 ± 0.31
CCC(C(=O)O)c1ccc(N2Cc3ccccc3C2=O)cc1 (centres undefined) [Indobufen]	0.798 ± 0.023
CC(CCC(=O)NCCS(=O)(=O)O)C1CCC2C3C(O)CC4CC(O)CCC4(C)C3CCC12C (centres undefined) [Tauroursodeoxycholic Acid (TUDCA)]	0.824 ± 0.27
Nc1ccn(C2OC(CO)C(O)C2O)c(=O)n1 (centres undefined) [Cytarabine]	0.845 ± 0.034
Cc1c(Cl)cccc1Nc1ccccc1C(=O)O [Tolfenamic Acid]	0.859 ± 0.21
Nc1nc(F)nc2c1ncn2C1OC(CO)C(O)C1O (centres undefined) [Fludarabine]	1.09 ± 0.014
COC(=O)c1cc(OC)c2c(c1-c1c(C(=O)OC)cc(OC)c3c1OCO3)OCO2 [Bifendate]	0.776 ± 0.055
COc1cc2nccc(Oc3ccc(NC(=O)Nc4cc(C)on4)c(Cl)c3)c2cc1OC [Tivozanib (AV-951)]	0.9917 ± 0.0075
CC1CCN(C(=O)CC#N)CC1N(C)c1ncnc2[nH]ccc12.O=C(O)CC(O)(CC(=O)O)C(=O)O (centres undefined)	0.88 ± 0.18
CC(C)c1nc(N(C)S(C)(=O)=O)nc(-c2ccc(F)cc2)c1/C=C/C(O)CC(O)CC(=O)O (centres undefined) [Rosuvastatin]	0.8625 ± 0.005
COc1cc(CNC(=O)CCCC/C=C\C(C)C)ccc1O [Zucapsaicin]	0.882 ± 0.066

Structure (SMILES)	IL-6-GFP fluorescence
NC(CC(=O)N1CCn2c(nnc2C(F)(F)F)C1)Cc1cc(F)c(F)cc1F (centres undefined) [Sitagliptin]	0.824 ± 0.19
CC(C)(O)CNc1nc(Nc2ccnc(C(F)(F)F)c2)nc(-c2cccc(C(F)(F)F)n2)n1 [Enasidenib (AG-221)]	0.776 ± 0.41
O=c1[nH]cc(F)c(=O)[nH]1 [Fluorouracil (5-Fluoracil, 5-FU)]	0.908 ± 0.058
CC(=O)N1CC(O)CC1C(=O)O (centres undefined) [Oxaceprol]	0.9661 ± 0.0038
CN(C)CCOC(c1ccc(Cl)cc1)c1ccccn1.O=C(O)/C=C\C(=O)O (centres undefined) [CarbinoxaMine Maleate]	1.006 ± 0.0083
COc1cc2nccc(Oc3ccc(NC(=O)NC4CC4)c(Cl)c3)c2cc1C(N)=O.CS(=O)(=O)O [lenvatinib Mesylate]	0.885 ± 0.021
C=CC(=O)Nc1cc(Nc2nccc(-c3cn(C)c4ccccc34)n2)c(OC)cc1N(C)CCN(C)C [Osimertinib (AZD9291)]	1.25 ± 0.022
CCC(=O)OCC(=O)C1(OC(=O)CC)C(C)CC2C3CCC4=CC(=O)C=CC4(C)C3(Cl)C(O)CC21C (centres undefined) [Beclomethasone dipropionate]	0.821 ± 0.25
CN1C(C(=O)Nc2ccccn2)=C(O)c2ccccc2S1(=O)=O [Piroxicam]	1.25 ± 0.029
Cc1ccc(=O)n(-c2ccccc2)c1 [Pirfenidone]	0.733 ± 0.27
Cl.Clc1ccc(CCCOCCCN2CCCCC2)cc1 [Pitolisant hydrochloride]	0.833 ± 0.015
Cc1oncc1C(=O)Nc1ccc(C(F)(F)F)cc1 [Leflunomide]	0.816 ± 0.015
O=C(O)c1cc(-c2ccc(F)cc2F)ccc1O [Diflunisal]	0.917 ± 0.011
CCCCC1C(=O)N(c2ccccc2)N(c2ccccc2)C1=O [Phenylbutazone]	0.882 ± 0.058
CC(C(=O)[O-])c1cccc(Oc2ccccc2)c1.CC(C(=O)[O-])c1cccc(Oc2ccccc2)c1.[Ca+2] (centres undefined) [Fenoprofen Calcium]	0.877 ± 0.074
COc1ccc2cc(C(C)C(=O)[O-])ccc2c1.[Na+] (centres undefined) [Naproxen Sodium]	0.921 ± 0.23
CN(C)C/C=C/C(=O)Nc1cc2c(Nc3ccc(F)c(Cl)c3)ncnc2cc1OC1CCOC1 (centres undefined) [Afatinib (BIBW2992)]	1.12 ± 0.097
CC(=O)OC1(C(C)=O)CCC2C3CC(C)C4=CC(=O)C=CC4(C)C3(F)C(O)CC21C (centres undefined) [Fluorometholone Acetate]	0.955 ± 0.0099
O=C([O-])CC(O)(CC(=O)[O-])C(=O)[O-].O=C([O-])CC(O)(CC(=O)[O-])C(=O)[O-].[BiH6+3].[K+].[K+].[K+] [Gastrodenol]	0.798 ± 0.03

2 entries from above, bar-delimited:
Structure (SMILES) | IL-6-GFP fluorescence
CC(=O)OC1(C(C)=O)CCC2C3CC(C)C4=CC(=O)C=CC4(C)C3(F)C(O)CC21C (centres undefined) [Fluorometholone Acetate] | 0.955 ± 0.0099
O=C([O-])CC(O)(CC(=O)[O-])C(=O)[O-].O=C([O-])CC(O)(CC(=O)[O-])C(=O)[O-].[BiH6+3].[K+].[K+].[K+] [Gastrodenol] | 0.798 ± 0.03
